# In patent publication US11857565B2 (priority 2018, dated 2024):
# Test: general procedure: Fmoc solid-phase peptide synthesis; chlorotrityl resin; D-Series SynPhase Lanterns
# Details: whole synthesis
row,Substance,isolated yield [%]
1,Boc-(N-methyl-ethyl)-AF,32
2,Bis(ethyl)-AF,57
3,Bis(propyl)-AF,41
4,(Boc-N-methyl)-pentyl-AF,25
5,(Boc-N-Methyl)-butyl-AF-glutamic acid-lysine-propionyl maleimide,29
6,(Boc-N-methyl)-propyl-AF,55

# Same assay, conditions: whole synthesis, from 0.024 mmol resin, scale 0.024 mmol
row,Substance,isolated yield [%]
1,(Boc-N-methyl)propyl-AF-glutamic acid-lysine-propionyl maleimide,4
